Laboratory results published in patent US5434138A (Hoechst Aktiengesellschaft, priority 1990, dated 1995).
Non-standard residues stand in square brackets, D forms with d. *: point of attachment. dPhe(4-Cl) = N[C@H](Cc1ccc(Cl)cc1)C(=O)O; Fmoc = O=C(OCC1c2ccccc2-c2ccccc21)*; OtBu = CC(C)(C)O*; tBu = CC(C)(C)*

Experiment: general procedure: solution-phase peptide synthesis; DCC/HOBt or DCC/HOObt
Conditions: coupling step

| Substance | step yield [%] |
| --- | --- |
| Ac-D-Nal-D-p-Cl-Phe-D-Pal-Ser-Tyr-D-Ser[Rha(Ac3)]-Leu-Ser[Fuc(Acs)]-Pro-Azagly-NH2 | 74 |
| Ac-D-Nal-D-p-Cl-Phe-D-Pal-Ser-Tyr-D-Ser[Rha(Ac3)]-Leu-Ser[Rha(Ac3)]-Pro-Azagly-NH2 | 85 |
| Ac-D-Nal-D-p-Cl-Phe-D-Pal-Ser-Tyr-D-Ser[Rha(Ac3)]-Leu-Ser[Rha(Ac3)]-Pro-D-Ala-NH2 | 74 |
| Ac-D-Nal-D-p-Cl-Phe-D-TrP-Ser-TYr-D-Ser[Rha(Ac3)]-Leu-Ser[Rha(Ac3)]-Pro-Azagly-NH2 | 59 |
| Ac-D-Nal-D-p-Cl-Phe-D-Trp-Ser(tBu)-Tyr(tBu)-OtBu | 59 |
| Fmoc-D-Ser[Rha(Ac3)]-Leu-Ser[Fuc(Ac3)]-Pro-Azagly-NH2 | 77 |
| Fmoc-D-Ser[Rha(Ac3)]-Leu-Ser[Rha(Ac3)]-Pro-Azagly-NH2 | 78 |
| Fmoc-D-Ser[Rha(Ac3)]-Leu-Ser[Rha(Ac3)]-Pro-D-Ala-NH2 | 73 |
| Fmoc-D-Ser[Rha(Ac3)]-Leu-Ser[Xyl(Ac3)]-Pro-Azagly-NH2 | 71 |
| Fmoc-Leu-Ser[Fuc(Ac3)]-Pro-Azagly-NH2 | 69 |
| Fmoc-Leu-Ser[Rha(Ac3)]-Pro-Azagly-NH2 | 83 |
| Fmoc-Leu-Ser[Rha(Ac3)]-Pro-D-Ala-NH2 | 66 |
| Fmoc-Leu-Ser[Xyl(Ac3)]-Pro-Azagly-NH2 | 73 |
| Fmoc-[dPhe(4-Cl)][dW]S(tBu)Y(tBu)-OtBu | 77.8 |

Same assay, conditions: late stage modification step

| Substance | step yield [%] |
| --- | --- |
| Ac-D-Nal-D-p-Cl-Phe-D-Pal-Ser-Tyr-D-Ser(Rha)-Leu-Ser(Fuc)-Pro-Azagly-NH2 | 15 |
| Ac-D-Nal-D-p-Cl-Phe-D-Pal-Ser-Tyr-D-Ser(Rha)-Leu-Ser(Rha)-Pro-AzaglY-NH2 | 22 |
| Ac-D-Nal-D-p-Cl-Phe-D-Pal-Ser-Tyr-D-Ser(Rha)-Leu-Ser(Rha)-Pro-D-Ala-NH2 | 20 |
| Ac-D-Nal-D-p-Cl-Phe-D-Trp-Ser-Tyr-D-Ser(Rha)-Leu-Ser(Rha)-Pro-Azagly-NH2 | 27 |
| H-D-Ser[Rha(AC3)]-Leu-Ser[Xyl(Acs)]-Pro-Azagly-NH2 | 90 |
| H-D-Ser[Rha(Ac3)]-Leu-Ser[Fuc(Ac3)]-Pro-Azagly-NH2 | 90 |
| H-D-Ser[Rha(Ac3)]-Leu-Ser[Rha(Ac3)]-Pro-Azagly-NH2 | 89 |
| H-D-Ser[Rha(Ac3)]-Leu-Ser[Rha(Ac3)]-Pro-D-Ala-NH2 | 91 |
| H-Leu-Ser[Fuc(Ac3)]-Pro-Azagly-NH2 | 88 |
| H-Leu-Ser[Rha(Ac3)]-Pro-AzaglY-NH2 | 87 |
| H-Leu-Ser[Rha(Ac3)]-Pro-D-Ala-NH2 | 90 |
| H-Leu-Ser[Xyl(Ac3)]-Pro-Azagly-NH2 | 86 |
| H-[dPhe(4-Cl)][dW]S(tBu)Y(tBu)-OtBu | 104.9 |
